Measured values reported in patent US20030157026A1, “Photodynamic diagnosis and therapy for insulin-dependent diabetes mellitus” (priority 2001, published 2003).
At least one compound was matched to its structure with a doubt left.

Tested on: macrophages having infiltrated the inflammatory sites of Langerhans islets
Assay: Uptake of conventional PDT photosensitizers into macrophages in the pancreas of a mammal with IDDM
Assay type: in vivo
Conditions: no test described

Oc1cccc(-c2c3nc(c(-c4cccc(O)c4)c4ccc([nH]4)c(-c4cccc(O)c4)c4nc(c(-c5cccc(O)c5)c5ccc2[nH]5)CC4)C=C3)c1 [temoporfin]
uptake into macrophages when each singly administered: selectively be uptaken by and into the macrophages
